Experimental data: PMC4876461

Target: T1, SUMO5 (tagged, expressed in 293 cells for co-immunoprecipitation) (human) (UniProt G2XKQ0)
T1 sequence: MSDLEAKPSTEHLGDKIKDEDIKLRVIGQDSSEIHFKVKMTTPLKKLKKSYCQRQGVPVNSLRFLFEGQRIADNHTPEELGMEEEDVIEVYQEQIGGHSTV
Experiment: co-IP; co-immunoprecipitation from lysates of 293 cells transfected with the plasmids indicated (Fig. 5F, 5G, 6F)

PML (human) was tested, and the binding was “binds”.

No constants are given. Whether binding was seen depends on the method and setting. Binding seen in cells or lysates may run through a third protein. Binding calls can cover weak binding; strength is not graded here. Where a sequence is shown, tags or fusion partners need not be part of it.
